Measured values reported in article PMC4647842.
These are yes or no findings as the source states them, for the method shown. Binding seen in cells or lysates may run through a third protein. Some entries that bind do so weakly or less than the wild type. For some assays here: Where a sequence is shown, tags or fusion partners need not be part of it. Each block holds one substance with its values, some of them ahead of it.

Sequences of proteins named here, by UniProt entry; tags and fusion partners are left off. A change or cut given only in a name is not applied to a line headed by its entry.
UniProt P34152: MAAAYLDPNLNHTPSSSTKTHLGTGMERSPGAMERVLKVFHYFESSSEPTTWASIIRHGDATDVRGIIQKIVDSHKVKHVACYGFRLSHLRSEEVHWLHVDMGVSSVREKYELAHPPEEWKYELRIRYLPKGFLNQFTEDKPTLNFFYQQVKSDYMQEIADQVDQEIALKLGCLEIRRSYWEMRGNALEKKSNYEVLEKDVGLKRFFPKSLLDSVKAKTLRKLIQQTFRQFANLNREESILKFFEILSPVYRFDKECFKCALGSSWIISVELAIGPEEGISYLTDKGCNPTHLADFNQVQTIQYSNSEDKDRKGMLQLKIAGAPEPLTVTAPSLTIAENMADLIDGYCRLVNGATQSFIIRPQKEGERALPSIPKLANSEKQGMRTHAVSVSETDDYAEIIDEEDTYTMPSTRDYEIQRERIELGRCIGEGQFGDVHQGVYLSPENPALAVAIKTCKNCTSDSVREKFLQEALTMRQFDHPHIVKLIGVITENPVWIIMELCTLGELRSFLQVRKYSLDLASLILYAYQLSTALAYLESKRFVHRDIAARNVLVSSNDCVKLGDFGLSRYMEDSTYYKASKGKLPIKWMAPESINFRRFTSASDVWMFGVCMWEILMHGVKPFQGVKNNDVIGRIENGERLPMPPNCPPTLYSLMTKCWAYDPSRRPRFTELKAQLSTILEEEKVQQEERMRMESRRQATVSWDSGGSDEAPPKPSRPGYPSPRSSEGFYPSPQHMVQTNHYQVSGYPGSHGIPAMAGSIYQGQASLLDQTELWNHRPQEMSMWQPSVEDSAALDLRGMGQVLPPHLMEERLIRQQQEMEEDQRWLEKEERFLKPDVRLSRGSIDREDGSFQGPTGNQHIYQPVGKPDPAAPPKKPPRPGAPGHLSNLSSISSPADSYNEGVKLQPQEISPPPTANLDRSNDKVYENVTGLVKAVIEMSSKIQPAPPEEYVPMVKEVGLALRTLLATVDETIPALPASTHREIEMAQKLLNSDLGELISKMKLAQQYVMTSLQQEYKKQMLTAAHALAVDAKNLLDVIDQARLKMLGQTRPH
UniProt Q5S007: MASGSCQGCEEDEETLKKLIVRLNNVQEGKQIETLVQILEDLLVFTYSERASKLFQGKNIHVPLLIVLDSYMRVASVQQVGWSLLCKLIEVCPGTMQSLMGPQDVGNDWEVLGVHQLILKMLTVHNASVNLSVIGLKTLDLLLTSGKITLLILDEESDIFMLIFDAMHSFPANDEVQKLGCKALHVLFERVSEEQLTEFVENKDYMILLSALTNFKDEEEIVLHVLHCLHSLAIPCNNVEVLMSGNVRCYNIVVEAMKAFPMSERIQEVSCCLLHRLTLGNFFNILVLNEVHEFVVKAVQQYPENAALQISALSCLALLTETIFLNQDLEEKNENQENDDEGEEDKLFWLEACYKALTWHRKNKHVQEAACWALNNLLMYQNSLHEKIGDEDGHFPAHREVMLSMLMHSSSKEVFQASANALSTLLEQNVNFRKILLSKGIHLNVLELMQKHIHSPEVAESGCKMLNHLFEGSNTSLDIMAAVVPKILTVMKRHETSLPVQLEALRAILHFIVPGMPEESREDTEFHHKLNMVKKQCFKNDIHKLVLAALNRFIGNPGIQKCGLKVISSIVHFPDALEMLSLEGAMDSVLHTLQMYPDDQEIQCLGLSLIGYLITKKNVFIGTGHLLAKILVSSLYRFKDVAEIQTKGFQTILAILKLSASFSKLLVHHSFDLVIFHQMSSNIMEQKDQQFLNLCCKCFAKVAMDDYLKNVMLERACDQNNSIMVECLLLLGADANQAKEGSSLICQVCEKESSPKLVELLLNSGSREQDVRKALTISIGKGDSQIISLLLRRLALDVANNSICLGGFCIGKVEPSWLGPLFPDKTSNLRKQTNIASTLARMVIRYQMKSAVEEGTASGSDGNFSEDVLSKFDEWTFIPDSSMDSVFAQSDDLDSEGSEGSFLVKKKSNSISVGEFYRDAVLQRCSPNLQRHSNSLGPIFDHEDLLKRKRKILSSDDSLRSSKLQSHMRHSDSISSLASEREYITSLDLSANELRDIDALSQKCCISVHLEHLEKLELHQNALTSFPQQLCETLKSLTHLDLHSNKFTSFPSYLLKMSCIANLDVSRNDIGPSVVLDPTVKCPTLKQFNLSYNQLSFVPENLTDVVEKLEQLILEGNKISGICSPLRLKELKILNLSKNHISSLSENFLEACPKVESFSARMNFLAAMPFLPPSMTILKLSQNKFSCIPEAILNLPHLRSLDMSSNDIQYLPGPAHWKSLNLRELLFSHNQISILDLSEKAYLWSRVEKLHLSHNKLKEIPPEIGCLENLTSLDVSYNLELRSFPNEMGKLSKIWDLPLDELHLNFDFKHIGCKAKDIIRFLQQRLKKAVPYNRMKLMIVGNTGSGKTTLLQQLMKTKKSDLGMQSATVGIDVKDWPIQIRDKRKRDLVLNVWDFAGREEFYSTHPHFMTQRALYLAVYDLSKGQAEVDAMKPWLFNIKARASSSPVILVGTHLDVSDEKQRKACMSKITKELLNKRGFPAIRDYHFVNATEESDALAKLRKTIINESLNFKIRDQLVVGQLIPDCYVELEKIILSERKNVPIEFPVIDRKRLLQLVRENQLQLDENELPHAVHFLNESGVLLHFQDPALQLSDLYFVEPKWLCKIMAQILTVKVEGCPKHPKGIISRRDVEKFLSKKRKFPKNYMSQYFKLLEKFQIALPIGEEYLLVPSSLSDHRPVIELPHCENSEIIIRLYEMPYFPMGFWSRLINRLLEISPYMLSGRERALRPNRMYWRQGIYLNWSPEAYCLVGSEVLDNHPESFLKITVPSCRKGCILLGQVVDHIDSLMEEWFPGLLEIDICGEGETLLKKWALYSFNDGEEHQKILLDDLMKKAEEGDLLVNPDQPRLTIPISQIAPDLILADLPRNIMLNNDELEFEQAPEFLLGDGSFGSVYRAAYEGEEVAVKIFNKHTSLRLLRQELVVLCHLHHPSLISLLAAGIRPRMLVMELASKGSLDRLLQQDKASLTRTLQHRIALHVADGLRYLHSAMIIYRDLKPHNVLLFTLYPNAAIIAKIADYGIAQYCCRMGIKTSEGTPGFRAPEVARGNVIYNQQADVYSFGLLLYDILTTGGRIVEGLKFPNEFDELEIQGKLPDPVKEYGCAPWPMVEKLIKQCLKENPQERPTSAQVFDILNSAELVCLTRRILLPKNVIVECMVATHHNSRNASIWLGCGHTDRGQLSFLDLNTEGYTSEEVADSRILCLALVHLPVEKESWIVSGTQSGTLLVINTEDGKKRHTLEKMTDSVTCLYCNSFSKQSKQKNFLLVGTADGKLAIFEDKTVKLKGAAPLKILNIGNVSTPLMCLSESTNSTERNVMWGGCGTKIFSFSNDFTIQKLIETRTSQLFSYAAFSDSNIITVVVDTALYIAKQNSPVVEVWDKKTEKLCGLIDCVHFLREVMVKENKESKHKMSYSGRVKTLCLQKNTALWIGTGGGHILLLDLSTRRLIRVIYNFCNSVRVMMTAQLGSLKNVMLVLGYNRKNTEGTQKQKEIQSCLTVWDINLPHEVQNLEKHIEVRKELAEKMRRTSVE
UniProt Q5S006: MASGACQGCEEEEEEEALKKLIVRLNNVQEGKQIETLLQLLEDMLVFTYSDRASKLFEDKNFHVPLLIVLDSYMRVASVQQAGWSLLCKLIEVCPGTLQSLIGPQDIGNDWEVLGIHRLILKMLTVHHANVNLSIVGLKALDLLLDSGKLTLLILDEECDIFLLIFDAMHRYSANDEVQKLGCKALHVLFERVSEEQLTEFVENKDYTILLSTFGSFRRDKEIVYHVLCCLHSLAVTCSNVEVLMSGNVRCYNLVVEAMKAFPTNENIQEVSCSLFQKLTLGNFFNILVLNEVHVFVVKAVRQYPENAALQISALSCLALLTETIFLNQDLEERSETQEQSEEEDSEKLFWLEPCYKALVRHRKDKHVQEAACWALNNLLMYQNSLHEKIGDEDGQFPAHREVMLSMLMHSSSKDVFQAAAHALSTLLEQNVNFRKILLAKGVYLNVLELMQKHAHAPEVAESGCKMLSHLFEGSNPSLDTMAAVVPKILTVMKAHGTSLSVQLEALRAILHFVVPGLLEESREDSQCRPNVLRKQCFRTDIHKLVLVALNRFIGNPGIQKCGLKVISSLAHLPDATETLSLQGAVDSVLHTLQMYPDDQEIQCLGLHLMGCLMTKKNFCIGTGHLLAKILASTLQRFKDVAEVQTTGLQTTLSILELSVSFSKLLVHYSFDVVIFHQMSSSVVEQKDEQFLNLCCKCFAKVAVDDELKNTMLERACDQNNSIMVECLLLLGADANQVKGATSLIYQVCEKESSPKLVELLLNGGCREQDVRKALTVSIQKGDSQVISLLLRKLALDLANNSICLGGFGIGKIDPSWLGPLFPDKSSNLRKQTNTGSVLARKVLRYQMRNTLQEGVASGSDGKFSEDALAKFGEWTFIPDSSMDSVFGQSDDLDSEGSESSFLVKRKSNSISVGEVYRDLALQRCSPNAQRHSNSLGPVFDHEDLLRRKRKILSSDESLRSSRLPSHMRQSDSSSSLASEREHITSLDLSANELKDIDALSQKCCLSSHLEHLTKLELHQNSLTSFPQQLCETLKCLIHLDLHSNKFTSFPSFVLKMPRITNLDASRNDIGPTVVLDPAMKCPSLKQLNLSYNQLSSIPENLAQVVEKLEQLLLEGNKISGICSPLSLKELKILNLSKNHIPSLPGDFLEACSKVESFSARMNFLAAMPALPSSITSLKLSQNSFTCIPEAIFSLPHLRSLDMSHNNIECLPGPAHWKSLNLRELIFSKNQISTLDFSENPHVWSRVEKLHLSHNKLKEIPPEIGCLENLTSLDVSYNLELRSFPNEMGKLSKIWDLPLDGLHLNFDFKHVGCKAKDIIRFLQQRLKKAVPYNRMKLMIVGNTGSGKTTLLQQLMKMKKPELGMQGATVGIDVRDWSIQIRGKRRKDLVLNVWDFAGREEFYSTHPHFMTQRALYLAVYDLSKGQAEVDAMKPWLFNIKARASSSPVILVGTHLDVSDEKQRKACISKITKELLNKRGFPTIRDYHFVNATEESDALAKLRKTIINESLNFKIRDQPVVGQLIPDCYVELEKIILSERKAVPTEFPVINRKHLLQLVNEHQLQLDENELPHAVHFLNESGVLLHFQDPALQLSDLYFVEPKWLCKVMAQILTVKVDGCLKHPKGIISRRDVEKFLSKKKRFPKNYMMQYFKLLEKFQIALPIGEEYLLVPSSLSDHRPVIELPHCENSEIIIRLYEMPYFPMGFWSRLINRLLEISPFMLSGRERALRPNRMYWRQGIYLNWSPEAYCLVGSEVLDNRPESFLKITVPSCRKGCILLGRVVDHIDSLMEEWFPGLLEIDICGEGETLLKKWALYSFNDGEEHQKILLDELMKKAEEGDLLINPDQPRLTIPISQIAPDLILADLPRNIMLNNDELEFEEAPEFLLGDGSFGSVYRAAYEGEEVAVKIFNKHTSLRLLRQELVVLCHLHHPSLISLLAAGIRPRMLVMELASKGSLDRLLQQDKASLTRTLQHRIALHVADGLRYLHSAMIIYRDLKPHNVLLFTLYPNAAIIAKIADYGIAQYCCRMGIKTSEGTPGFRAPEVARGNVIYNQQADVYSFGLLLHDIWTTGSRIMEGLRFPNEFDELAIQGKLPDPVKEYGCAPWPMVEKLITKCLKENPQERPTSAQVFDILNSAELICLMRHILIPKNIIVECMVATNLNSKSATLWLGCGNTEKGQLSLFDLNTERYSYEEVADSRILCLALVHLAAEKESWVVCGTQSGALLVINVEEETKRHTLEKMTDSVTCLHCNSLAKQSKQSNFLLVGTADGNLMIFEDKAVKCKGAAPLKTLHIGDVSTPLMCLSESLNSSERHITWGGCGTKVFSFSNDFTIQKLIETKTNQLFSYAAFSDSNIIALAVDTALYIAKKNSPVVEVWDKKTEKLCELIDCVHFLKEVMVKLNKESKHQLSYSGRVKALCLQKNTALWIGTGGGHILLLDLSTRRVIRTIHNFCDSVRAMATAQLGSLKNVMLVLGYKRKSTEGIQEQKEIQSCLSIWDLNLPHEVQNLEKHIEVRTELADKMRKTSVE

What was measured:
[1] = target: Focal adhesion kinase (FAK), endogenous in human brain (human (endogenous in brain)) (UniProt Q05397); assay: co-IP; endogenous proteins in mouse brain, human brain or rat primary microglia lysates (200-500 ug); antibodies against LRRK2 or FAK, Protein G agarose; buffer 1% Triton X-100, 150 mM NaCl, phosphate, 50 mM NaF, 1 mM EDTA, 1 mM Na3VO4; western blot; IgG as negative control
[2] = target: Focal adhesion kinase (FAK), endogenous in mouse brain (mouse (endogenous in brain)) (UniProt P34152); assay: as above
[3] = target: FLAG-FAK (human FAK in p3xFLAG-CMV-7.1) (human) (UniProt Q05397); assay: co-IP; HEK 293T co-transfected with Myc-LRRK2 (WT, GS or DA) and FLAG-FAK or FLAG-FAK domains, lysed 48 h after transfection; precipitated with anti-FLAG, Protein G agarose; western blot
[4] = target: Focal adhesion kinase (FAK), endogenous in mouse microglia (mouse (endogenous in primary microglia)) (UniProt P34152); assay: proximity ligation; in situ PLA in fixed, permeabilised non-Tg and GS-Tg mouse microglia with or without 100 uM ADP for 5 min; antibodies against LRRK2 (N231B/34 or N241A/34) and FAK (#3285)
[5] = target: Focal adhesion kinase (FAK), endogenous in HEK 293T cells (human (endogenous in HEK 293T)) (UniProt Q05397); assay: co-IP; HEK 293T transfected with FLAG-tagged LRRK2 domains (F1-F7), lysed 48 h after transfection; precipitated with anti-FAK; western blot
[6] = target: FLAG-tagged kinase domain of FAK (human) (UniProt Q05397); assay: co-IP; HEK 293T co-transfected with Myc-LRRK2 (WT, GS or DA) and FLAG-FAK or FLAG-FAK domains, lysed 48 h after transfection; precipitated with anti-FLAG, Protein G agarose; western blot
[7] = target: T1, FLAG-tagged FERM domain of FAK (human) (UniProt Q05397); assay: as above
T1 sequence: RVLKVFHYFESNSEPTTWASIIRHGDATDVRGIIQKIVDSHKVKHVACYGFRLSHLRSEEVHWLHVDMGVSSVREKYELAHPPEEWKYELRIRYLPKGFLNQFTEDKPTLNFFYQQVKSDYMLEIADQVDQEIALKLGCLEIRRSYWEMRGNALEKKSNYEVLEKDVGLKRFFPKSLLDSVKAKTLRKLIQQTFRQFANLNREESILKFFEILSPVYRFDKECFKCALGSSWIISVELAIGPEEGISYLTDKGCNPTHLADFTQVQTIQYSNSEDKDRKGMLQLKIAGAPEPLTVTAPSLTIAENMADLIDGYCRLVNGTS

[8] = target: Leucine-rich repeat kinase 2 (LRRK2), endogenous in HEK 293T cells (human (endogenous in HEK 293T)) (UniProt Q5S007); assay: co-IP; HEK 293T cells treated with 100 uM ADP for the indicated times or untreated; precipitated with an antibody against LRRK2; western blot for FAK; IgG as negative control

Substance: Leucine-rich repeat kinase 2 (LRRK2), endogenous in mouse brain (from UniProt Q5S006 1-2527)
binding [2]: binds

Substance: Leucine-rich repeat kinase 2 (LRRK2), endogenous in non-Tg mouse microglia (from UniProt Q5S006 1-2527)
binding [4]: binds

Substance: C-terminal 3xMyc-tagged wild-type LRRK2 (from UniProt Q5S007 1-2527)
binding [3]: binds | binding [6]: binds | binding [7]: binds

Substance: Focal adhesion kinase (FAK), endogenous in HEK 293T cells (from UniProt Q05397 1-1052)
binding [8]: binds

Second part, the substance after the results:

binding [1]: binds
Substance: Leucine-rich repeat kinase 2 (LRRK2), endogenous in human brain (from UniProt Q5S007 1-2527)

binding [3]: binds
Substance: C-terminal 3xMyc-tagged D1994A-LRRK2 (from UniProt Q5S007 1-2527)

binding [5]: binds
Substance: FLAG-tagged kinase domain of LRRK2 (from UniProt Q5S007 1879-2138) (domain or fragment)

binding [3]: binds
Substance: C-terminal 3xMyc-tagged G2019S-LRRK2 (from UniProt Q5S007 1-2527)

binding [4]: binds
Substance: G2019S-LRRK2 of G2019S-LRRK2 transgenic mice (GS-Tg microglia) (from UniProt Q5S007 1-2527)
